This note sets out measurements from PMC8416978.

Protein sequences, listed by entry. Tags and fused reporters are not part of them.
UniProt P35222: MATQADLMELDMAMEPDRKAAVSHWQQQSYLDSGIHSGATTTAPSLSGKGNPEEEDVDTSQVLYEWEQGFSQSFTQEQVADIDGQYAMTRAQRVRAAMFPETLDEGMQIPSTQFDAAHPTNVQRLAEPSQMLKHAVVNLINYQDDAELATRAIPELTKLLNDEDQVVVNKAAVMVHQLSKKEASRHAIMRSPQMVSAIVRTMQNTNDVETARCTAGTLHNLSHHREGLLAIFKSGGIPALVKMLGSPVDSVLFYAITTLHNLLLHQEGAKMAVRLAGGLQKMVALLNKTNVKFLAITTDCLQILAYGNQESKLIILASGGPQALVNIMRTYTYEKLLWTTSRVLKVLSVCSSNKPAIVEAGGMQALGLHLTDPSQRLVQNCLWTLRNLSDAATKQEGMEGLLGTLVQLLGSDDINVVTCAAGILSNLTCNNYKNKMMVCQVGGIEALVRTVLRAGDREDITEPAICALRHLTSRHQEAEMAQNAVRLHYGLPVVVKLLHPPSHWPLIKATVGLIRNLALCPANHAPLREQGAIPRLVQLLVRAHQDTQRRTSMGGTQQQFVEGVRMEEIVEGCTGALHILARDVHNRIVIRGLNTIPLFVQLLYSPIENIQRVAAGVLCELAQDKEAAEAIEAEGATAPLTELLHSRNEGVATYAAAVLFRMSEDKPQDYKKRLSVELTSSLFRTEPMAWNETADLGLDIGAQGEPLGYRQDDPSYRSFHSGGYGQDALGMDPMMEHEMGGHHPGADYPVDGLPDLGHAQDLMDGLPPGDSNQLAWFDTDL

Results are given in words; binding and its absence hold for the method and conditions named. In cells and extracts the contact can be indirect. Some entries that bind do so weakly or less than the wild type.

The target of assay [1] is β-catenin (human (endogenous in HTR8)) (UniProt P35222). Put plainly: co-IP; extracts of HTR8 or p-USP2a/HTR8 cells made by brief sonication in IP buffer (50 mM Tris-HCl pH 8.0, 150 mM NaCl, 2 mM EDTA, 0.5% NP-40, 5% glycerol); 1-2 ug antibody overnight, protein A+G agarose, three washes, Western blot; the precipitating antibody is not stated.
In assay [2] the target is T1, TGF-β receptor (TGFBR1) (human (endogenous in HTR8)) (UniProt P36897).
T1 sequence: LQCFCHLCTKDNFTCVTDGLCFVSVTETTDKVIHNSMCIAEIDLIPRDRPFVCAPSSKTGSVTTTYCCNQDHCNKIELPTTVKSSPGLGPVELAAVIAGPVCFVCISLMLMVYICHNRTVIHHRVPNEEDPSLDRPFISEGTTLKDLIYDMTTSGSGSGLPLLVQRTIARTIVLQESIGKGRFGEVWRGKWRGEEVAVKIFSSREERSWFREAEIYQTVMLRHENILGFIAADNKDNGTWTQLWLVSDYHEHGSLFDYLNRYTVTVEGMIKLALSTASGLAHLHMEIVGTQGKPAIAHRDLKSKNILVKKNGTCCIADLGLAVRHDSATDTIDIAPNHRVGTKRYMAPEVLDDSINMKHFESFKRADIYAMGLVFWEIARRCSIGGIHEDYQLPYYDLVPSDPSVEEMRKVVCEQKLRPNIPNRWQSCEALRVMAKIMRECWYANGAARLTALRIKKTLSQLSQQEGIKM
The assay is described as above.

B1: Ubiquitin-specific protease 2a (USP2a), in HTR8 cells (enzyme, UniProt O75604-1 1-605)
chain: MSQLSSTLKRYTESARYTDAHYAKSGYGAYTPSSYGANLAASLLEKEKLGFKPVPTSSFLTRPRTYGPSSLLDYDRGRPLLRPDITGGGKRAESQTRGTERPLGSGLSGGSGFPYGVTNNCLSYLPINAYDQGVTLTQKLDSQSDLARDFSSLRTSDSYRIDPRNLGRSPMLARTRKELCTLQGLYQTASCPEYLVDYLENYGRKGSASQVPSQAPPSRVPEIISPTYRPIGRYTLWETGKGQAPGPSRSSSPGRDGMNSKSAQGLAGLRNLGNTCFMNSILQCLSNTRELRDYCLQRLYMRDLHHGSNAHTALVEEFAKLIQTIWTSSPNDVVSPSEFKTQIQRYAPRFVGYNQQDAQEFLRFLLDGLHNEVNRVTLRPKSNPENLDHLPDDEKGRQMWRKYLEREDSRIGDLFVGQLKSSLTCTDCGYCSTVFDPFWDLSLPIAKRGYPEVTLMDCMRLFTKEDVLDGDEKPTCCRCRGRKRCIKKFSIQRFPKILVLHLKRFSESRIRTSKLTTFVNFPLRDLDLREFASENTNHAVYNLYAVSNHSGTTMGGHYTAYCRSPGTGEWHTFNDSSVTPMSSSQVRTSDAYLLFYELASPPSRM
Regarding B1, the binding result in assay [1] is given as “binds”.

B2: Ubiquitin-specific protease 2a (USP2a), overexpressed in HTR8 cells (p-USP2a/HTR8) (enzyme, UniProt O75604-1 1-605)
chain: MSQLSSTLKRYTESARYTDAHYAKSGYGAYTPSSYGANLAASLLEKEKLGFKPVPTSSFLTRPRTYGPSSLLDYDRGRPLLRPDITGGGKRAESQTRGTERPLGSGLSGGSGFPYGVTNNCLSYLPINAYDQGVTLTQKLDSQSDLARDFSSLRTSDSYRIDPRNLGRSPMLARTRKELCTLQGLYQTASCPEYLVDYLENYGRKGSASQVPSQAPPSRVPEIISPTYRPIGRYTLWETGKGQAPGPSRSSSPGRDGMNSKSAQGLAGLRNLGNTCFMNSILQCLSNTRELRDYCLQRLYMRDLHHGSNAHTALVEEFAKLIQTIWTSSPNDVVSPSEFKTQIQRYAPRFVGYNQQDAQEFLRFLLDGLHNEVNRVTLRPKSNPENLDHLPDDEKGRQMWRKYLEREDSRIGDLFVGQLKSSLTCTDCGYCSTVFDPFWDLSLPIAKRGYPEVTLMDCMRLFTKEDVLDGDEKPTCCRCRGRKRCIKKFSIQRFPKILVLHLKRFSESRIRTSKLTTFVNFPLRDLDLREFASENTNHAVYNLYAVSNHSGTTMGGHYTAYCRSPGTGEWHTFNDSSVTPMSSSQVRTSDAYLLFYELASPPSRM
Consider B2, for which the binding entry in assay [2] is “binds”.
